These are yes or no findings as the source states them, for the method shown. Binding seen in cells or lysates may run through a third protein. Here binding means that the protein was enriched with, or labelled near, the bait; the list need not be complete. Where a sequence is shown, tags or fusion partners need not be part of it.
Assays:
[1] = biological target: T1, PfMYST::PTP (endogenous PfMYST with a C-terminal PTP tag) (P. falciparum (endogenous in 3D7 parasites)) (UniProt Q8III2); assay: affinity purification with mass spectrometry; tandem affinity purification (IgG agarose beads, TEV protease, anti-protein C beads) of PfMYST::PTP from nuclear extracts of 10^9 asexual blood-stage parasites in PA150 buffer (150 mM KCl, 20 mM Tris-HCl pH 7.7, 3 mM MgCl2, 0.5 mM DTT, 0.1% Tween 20), 4°C; WT 3D7 as control; LC-MS/MS, SAINT probability above 95%, FDR below 1%; three replicates
T1 sequence: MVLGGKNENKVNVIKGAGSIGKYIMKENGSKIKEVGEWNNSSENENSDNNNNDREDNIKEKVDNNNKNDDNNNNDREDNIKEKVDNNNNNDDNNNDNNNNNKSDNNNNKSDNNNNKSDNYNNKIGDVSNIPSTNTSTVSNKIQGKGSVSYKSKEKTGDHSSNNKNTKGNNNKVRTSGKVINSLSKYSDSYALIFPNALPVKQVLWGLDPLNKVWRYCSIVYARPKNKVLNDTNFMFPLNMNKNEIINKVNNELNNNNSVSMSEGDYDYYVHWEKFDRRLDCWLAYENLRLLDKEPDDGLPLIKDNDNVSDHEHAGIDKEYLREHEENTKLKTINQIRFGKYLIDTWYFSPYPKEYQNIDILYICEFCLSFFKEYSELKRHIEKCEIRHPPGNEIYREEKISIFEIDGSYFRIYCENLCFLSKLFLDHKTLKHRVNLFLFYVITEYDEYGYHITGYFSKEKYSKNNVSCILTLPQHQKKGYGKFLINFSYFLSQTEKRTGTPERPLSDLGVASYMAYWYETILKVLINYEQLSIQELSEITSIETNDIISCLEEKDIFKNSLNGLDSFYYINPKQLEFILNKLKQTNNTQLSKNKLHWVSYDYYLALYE

[2] = biological target: T2, PfEAF2::GFP (endogenous PfEAF2 tagged with GFP) (P. falciparum (endogenous in 3D7 parasites)) (UniProt C6KTC1); assay: affinity purification with mass spectrometry; single-step pulldown of PfEAF2::GFP with GFP-trap beads from lysates of 10^9 parasites; LC-MS/MS, same SAINT thresholds; three replicates
T2 sequence: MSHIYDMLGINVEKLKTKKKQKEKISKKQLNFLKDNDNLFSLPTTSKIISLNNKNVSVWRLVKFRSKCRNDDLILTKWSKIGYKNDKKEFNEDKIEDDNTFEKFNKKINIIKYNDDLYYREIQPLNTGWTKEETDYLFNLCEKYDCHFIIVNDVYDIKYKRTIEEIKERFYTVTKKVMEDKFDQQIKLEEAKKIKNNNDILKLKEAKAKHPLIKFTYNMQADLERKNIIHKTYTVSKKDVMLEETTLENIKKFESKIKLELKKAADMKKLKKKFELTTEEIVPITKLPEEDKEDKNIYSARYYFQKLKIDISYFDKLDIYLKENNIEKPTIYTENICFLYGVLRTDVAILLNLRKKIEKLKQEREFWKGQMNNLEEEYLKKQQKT

B1: PfEPL1 (protein, UniProt C0H5C0 1-958)
chain: MTKGGSNHKNNKIKPIDINKKLLIIKCNDDIRKLINKESPSVDEINEIKNLLENNEVKIEKKKRNIVIPRFKICEDSEEEKNIKNKDTINNDEKRKDNINDDEKRKDNINNDAEKNKSLSDDNNNNNNNNNNYDYDNDDEKKYSITKFEKPSHYIRYELYKDQVTGIKLSDGSIIHYDLLKEDEIFLEGLNSYLNIHVNDESFSKLIDKFEKLTGNSDNKEEINFKEALKAASDLKINYKSNVIKDIYTYWKNKRKKLGRPLLRMFWNNSQNSLPHYSVFRPRVKEKMTLRKHKKKNSEIIIKMQELIQDFRRLDRILRKIKQRDEKKLLLLQLNAILFDQRINEIQDKTYVCPMWNYFKDYKIEKIYKKFKKDKYYKNSYHHHYNNNSNNNKYYYDEKEYENYNFDANEDGYVNHNYMDEYMNDNMDEYLNNNIDAHSHYNYRDSIYNRKINKKLKHYIIHPEQKNVLKINPSEYKNVVLIKRRGRSNRMWVDRKYVDENNINNHEINYCDLSYAFNDFVEASLTLKKNYEEDVSNYLSGRTRIPIKLDIRKRDLKNVGDFNTSLFCNNQIHDDSLFNGMYDELNGERKRKRRKKKEQENLNVDENYINSNILLDNMGDQFALQANNNIHLDKTKASLNDNNNNNIIICNNNLDIIQKNSTTNVNVDSSNMNTTNIVTCDRTSITNDHDANNTDIKLNYFINKGNKINMNEPDYNTNLLFHKNNTEENMLNQYIQNKNNLYNINNINNINSNIKINEDNTKMVSHNILSLEHQNLKNQDFYEKYVSTNITNNYNNNNNNNIPYPLVSRNDKYAPCIFSKEQNNKTIFHFEDMIDPLMNKDNYLFCLSKYVYVQKKILFYLEHLLNFDNYNFKSKKKELPNNKDMNINLKINTNDNINNDSLNNDNINKDNINCDDINNKKNDDLINNTLSELNGTCLKSKVSHKSLKHKTAKDNNIK
binding [1]: binds | binding [2]: binds

B2: PfYNG2 (protein, UniProt Q8IJM3 1-971)
chain: MSDSAQVFMDNVYHLTGYLHRLLFLMKELDKKEHKINIGIERKEEVYLEKLYYAHKNKLENHIKHNYENSNTDSHDSHNEDNNEKKHDISIENVLKKMKKKKKSDLCINHDNHLNNEGDERKNVDKENNNMDMSNEFIKEEEANNIENIKSEGYVQSDEKKIKIKIKQDCIDIKENGNCDDNNNIDDNNNIDDNNYIDDNNIDDDDNNNVDNADNHHGKENKYKKKNSTISHDNDKMDEHANFNHTEENSNDGLYNNVNFKNNIISEGEEESRKEQEKKQNEKNEENEKNEKNEENEKNEENEKNEENEKNEKNEENEKNEENEKNEKNETKEHPTVNPVFNNNDIKQNILKEDEKDIDFLFNDEEMNKYLNEIINDREQCMALLREKICINNQIAYMIKHDYEKLKKQYDKLYTEMEMNGEVLPHMFNSSKNKYTTNEYEEYYNVKNKNIYAIDYHQYEDTYDMVNYMNKTKEEEEEQEEEEEEEEEEEEKEEEKDEYEENDDIEEEEDDDDEDEKEEINKKKKKKKKKKKERHIKDEQNKDKYGKDKNVKDKNVKDKNVKDKNVKDKNVKDKNVKDKNVKDKNVKDKNVKDKIIKEEKEGQNDIHEYESESSKHNIPRKSLSKKHSIKYDDEYIPYISDKVKRYKKHKKNKTQNDEPSSKSNKIGIEKMDGEKNNDEVKNNDEVKNNDVVKNNDEVKNNDVVKNNDEVKNNDDIKNKDDIKNNDDIKNNDDIKNNDEVKNNDEVKNNDDVKNNDNIKNNDDIKNNDDIKNIGEVKSTEGAKKNKESKLHSVKKNEDGNKSKEINQNSDMNKSNEINKNKSYEKIKSKSVDFNKNVLNTEKIKSKSVEYNKNIINTEKAKSKSKSVEINKNSKAINKSKNNDNKNKYKTKNKSKNVNISTDHTNNNNNNNNYKQVIKNCSNIQTNKNNSEENKTTNHAKKNESLSSYTSSLFDINQNEETTLGNLTKNEK
binding [1]: binds | binding [2]: binds

B3: PfALP2a (protein, UniProt Q8IIW6 1-499)
chain: MFQNIQTIILDINDGEMKTGYSGECTPRYNSNLILGLPLGHNATLKHTIFPLLPNVKRDNVELLYGIKYIYDENNNSRYDINFDVMEKLFEGISGSKALDDNFQDHPILLTEPNKTDRKYREKFTELMFESYNVYQLFLSRRSVLSCYGCARTSGLVLHVEKNCTNLCGIQEGYVFQKHIEEAPIGGDLIDRIYLSYLENIKNLKIYPYFSIEKNTNNLDNKNYDIKILKCPLVTKSYYLWGSLYVVNQMKENIINDSQNITEKNKNKNNNNNNSDLYEHKNVYKLPDGQIIDDNTTESLKLIFPYIFFRKKYNQNNINKLCTNTEIFQNFDFNEFYNSLKNLKLPILHKYNYKINTTNSIIEKIPDNSLDKTTNICYSDQIDSFFEIFDGLQDFIKKGILSFISSNINIDDVLNFLIITGESTMLHNFVGLLKSYLPFIDTIKEKSTKLIYSKGPDRKCNCFIGASILSSLGTFPQFCMTKSEYEEYGVRNIVDKKCA
binding [1]: binds | binding [2]: binds

B4: PfEAF6 (protein, UniProt C0H4T2 1-104)
chain: MKHKVKRDIMKCKKKLESSIKALEEKILRLELEYHKNCNVNGGNLIKGWESHLRKTPLEPLSFRTFRDDYGDSYVERMLSLTSCTSPATALFPSEDTIREKRKM
binding [1]: binds | binding [2]: binds
